Measured values taken from US20080199481A1.
Results are given in words; binding and its absence hold for the method and conditions named. Some binding calls cover weakened binding; strength is not graded here.

What was measured:
[1] = target: T1, Recombinant CXCL13 (standards provided in the R&D Systems Quantikine Human CXCL13/BLC/BCA-1 kit) (human) (UniProt O43927); assay: sandwich ELISA, plates coated with Antibody 1, detection with the R&D Quantikine human CXCL13 kit
T1 sequence: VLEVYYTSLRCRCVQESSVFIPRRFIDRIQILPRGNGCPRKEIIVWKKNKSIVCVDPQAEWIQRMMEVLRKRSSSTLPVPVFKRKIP

[2] = target: T2, Native human CXCL13 (human) (UniProt O43927); assay: as above
T2 sequence: T1 sequence

[3] = target: T1, Recombinant CXCL13 (standards provided in the R&D Systems Quantikine Human CXCL13/BLC/BCA-1 kit) (human); assay: sandwich ELISA, plates coated with Antibody 1 (5 µg/ml), detection with the R&D Quantikine human CXCL13 kit
[4] = target: T2, Native human CXCL13 (human); assay: as above

Measured: binding

B1: Antibody 1 (germlined IgG1) (antibody, V domains shown)
VH: EVQLLESGGGLVQPGGSLRLSCAASGFTFGNSWMSWVRQAPGKGLEWVSAISGSGGSTYYADSVKGRFTISRDNSKNTLYLQMNSLRAEDTAVYYCTRDLPGIAVAGYWGQGTLVTVSS
VL: DTQMTQSPSTLSASVGDRVTITCRASEGIYHWLAWYQQKPGKAPKLLIYKASSLASGVPSRFSGSGSGTEFTLTISSLQPDDFATYYCQQYSNYPLTFGGGTKLEIKR
binds: all assays above
